Measurements reported in PubChem BioAssay AID652259 (Drosophila RNAi Screening Center, 2013).

Aim: 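Identify new Wingless signalling regulators in fly cells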 (primary screen)
Cells: Drosophila clone 8 imaginal disc epithelial cells
Reagents: long dsRNA against Drosophila genes
Conditions: pathway stimulated by co-transfected Wingless expression plasmid
Measurement: 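Dual luciferase reads per well after Wingless plasmid stimulation: reporter firefly light and Renilla control light; activity is firefly divided by Renilla, a ratio not deposited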
Direction: firefly reporter light: higher = more Wg reporter light, before normalisation; Renilla control light: higher = more transfected or surviving cells
Call rule: 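a knock-down is a candidate when at least two out of four statistical tests show it departing from its plate mean; one test alone signals a weak candidate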
Meaning of the calls: active = candidate regulator (raises or lowers reporter); inactive = not a candidate
In all, the deposit lists about 22,000 reagents; below is a random part of those that have a named target and a result. In the full data, 233 (1.1%) are marked active. 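Light values are raw, unnormalised plate reads; the ratio scores behind the reporter calls were not deposited.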 Entries without a mark were called inactive. Reagents against one gene are numbered here. No sequences are given here. The record does not give: the amount of reagent, the time to read-out, the dose of the treatment.

With knock-down of Nckx30C (GeneID 45248) #1, the screen gave firefly reporter light, replicate 1 = 2773; firefly reporter light, replicate 2 = 6304; Renilla control light, replicate 1 = 937; Renilla control light, replicate 2 = 2601. Nckx30C (GeneID 45248) #2 gave firefly reporter light, replicate 1 = 2323; firefly reporter light, replicate 2 = 10418; Renilla control light, replicate 1 = 1110; Renilla control light, replicate 2 = 3945. Knock-down of Nckx30C (GeneID 45248) #3 gave: firefly reporter light, replicate 1 = 2073; firefly reporter light, replicate 2 = 6819; Renilla control light, replicate 1 = 1034; Renilla control light, replicate 2 = 3271. After knock-down of Nckx30C (GeneID 45248) #4, the record shows firefly reporter light, replicate 1 = 3016; firefly reporter light, replicate 2 = 8369; Renilla control light, replicate 1 = 597; Renilla control light, replicate 2 = 2467. With knock-down of Sf3a2 (GeneID 39456), the screen gave firefly reporter light, replicate 1 = 7270; Renilla control light, replicate 1 = 1176. Against CG13063 (GeneID 39797), the entry reads firefly reporter light, replicate 1 = 8576; Renilla control light, replicate 1 = 4204.

With knock-down of PHDP (GeneID 37788), the screen gave firefly reporter light, replicate 1 = 3273; firefly reporter light, replicate 2 = 6905; Renilla control light, replicate 1 = 1066; Renilla control light, replicate 2 = 3033. Silencing of ear (GeneID 44451) gave: firefly reporter light, replicate 1 = 6468; Renilla control light, replicate 1 = 2354. CG4291 (GeneID 33264) gave firefly reporter light, replicate 1 = 12241; Renilla control light, replicate 1 = 4441.

Records above whose target name starts with N or n:
Nckx30C (GeneID 45248) #1 → firefly reporter light, replicate 1 = 2773; firefly reporter light, replicate 2 = 6304; Renilla control light, replicate 1 = 937; Renilla control light, replicate 2 = 2601
Nckx30C (GeneID 45248) #2 → firefly reporter light, replicate 1 = 2323; firefly reporter light, replicate 2 = 10418; Renilla control light, replicate 1 = 1110; Renilla control light, replicate 2 = 3945
Nckx30C (GeneID 45248) #3 → firefly reporter light, replicate 1 = 2073; firefly reporter light, replicate 2 = 6819; Renilla control light, replicate 1 = 1034; Renilla control light, replicate 2 = 3271
Nckx30C (GeneID 45248) #4 → firefly reporter light, replicate 1 = 3016; firefly reporter light, replicate 2 = 8369; Renilla control light, replicate 1 = 597; Renilla control light, replicate 2 = 2467

Continued.
Against CG11030 (GeneID 33805), the values are firefly reporter light, replicate 1 = 3065; firefly reporter light, replicate 2 = 5498; Renilla control light, replicate 1 = 1577; Renilla control light, replicate 2 = 2892. For CG10140 (GeneID 39511) the deposit lists firefly reporter light, replicate 1 = 7888; Renilla control light, replicate 1 = 2950. For uzip (GeneID 38002), the values are firefly reporter light, replicate 1 = 9640; Renilla control light, replicate 1 = 3798. slam (GeneID 33890) scored firefly reporter light, replicate 1 = 2443; firefly reporter light, replicate 2 = 5593; Renilla control light, replicate 1 = 230; Renilla control light, replicate 2 = 2116. With knock-down of Mms19 (GeneID 40626) the results were firefly reporter light, replicate 1 = 5255; Renilla control light, replicate 1 = 853. After knock-down of Rat1 (GeneID 33964) the results were firefly reporter light, replicate 1 = 8100; Renilla control light, replicate 1 = 3865.

For CG6195 (GeneID 42343) the deposit lists firefly reporter light, replicate 1 = 12651; Renilla control light, replicate 1 = 2966. After knock-down of CheB93a (GeneID 42540) the results were firefly reporter light, replicate 1 = 38509; Renilla control light, replicate 1 = 6560. For CG42741 (GeneID 37654) #1, the entry reads firefly reporter light, replicate 1 = 3621; firefly reporter light, replicate 2 = 10274; Renilla control light, replicate 1 = 1116; Renilla control light, replicate 2 = 3945. Knock-down of CG42741 (GeneID 37654) #2 gave: firefly reporter light, replicate 1 = 9.66e5; firefly reporter light, replicate 2 = 1.03e6; Renilla control light, replicate 1 = 5.38e5; Renilla control light, replicate 2 = 5.12e5. Knock-down of CG13560 (GeneID 37758) came out at: firefly reporter light, replicate 1 = 3223; firefly reporter light, replicate 2 = 5713; Renilla control light, replicate 1 = 982; Renilla control light, replicate 2 = 2757. After knock-down of Ufsp2 (GeneID 39687) the results were firefly reporter light, replicate 1 = 2928; Renilla control light, replicate 1 = 1328.

run (GeneID 33059) #1 showed firefly reporter light, replicate 1 = 5699; firefly reporter light, replicate 2 = 12464; Renilla control light, replicate 1 = 1703; Renilla control light, replicate 2 = 4565. Against run (GeneID 33059) #2, the entry reads firefly reporter light, replicate 1 = 7.51e5; firefly reporter light, replicate 2 = 7.83e5; Renilla control light, replicate 1 = 3.91e5; Renilla control light, replicate 2 = 2.95e5. For Prosbeta4R2 (GeneID 33451), the values are firefly reporter light, replicate 1 = 5469; Renilla control light, replicate 1 = 3488. Knock-down of Mvd (GeneID 32520) resulted in: firefly reporter light, replicate 1 = 1400; firefly reporter light, replicate 2 = 5845; Renilla control light, replicate 1 = 714; Renilla control light, replicate 2 = 1552.
